{"source": "patent US20040253629A1", "about": "(Stanford University, published 2004)", "key": {"Bcl-xL": {"biological_target": "Bcl-xL", "experiment": "yeast two-hybrid; (-) = absence of reporter gene expression"}, "BAD": {"biological_target": "BAD", "experiment": "yeast two-hybrid, Bok-GAL4-AD vs GAL4-BD fusion, growth on selective medium with 5 mM 3-aminotriazole"}}, "note": "These are yes or no findings as the source states them, for the method shown."}
{"binder": "Bok-L (Bcl-2-related ovarian killer, long form, rat) (other, also called full-length Bok protein) MEVLRRSSVFAAEIMDAFDRSPTDKELVAQAKALGREYVHARLLRAGLSWSAPERASPAPGGRLAEVCTVLLRLGDELEQIRPSVYRNVARQLHIPLQSEPVVTDAFLAVAGHIFSAGITWGKVVSLYSVAAGLAVDCVRQAQPAMVHALVDCLGEFVRKTLATWLRRRGGWTDVLKCVVSTDPGFRSHWLVATLCSFGRFLKAAFFLLLPER", "values": [{"measurement": "binding", "setting": "Bcl-xL", "result": "no binding"}, {"measurement": "binding", "setting": "BAD", "result": "no binding"}]}
